# Results of single-concentration screens

The chains behind the UniProt entries cited, without tags or fusion partners. Residues count along the entry.
UniProt P9WNZ1, whole entry: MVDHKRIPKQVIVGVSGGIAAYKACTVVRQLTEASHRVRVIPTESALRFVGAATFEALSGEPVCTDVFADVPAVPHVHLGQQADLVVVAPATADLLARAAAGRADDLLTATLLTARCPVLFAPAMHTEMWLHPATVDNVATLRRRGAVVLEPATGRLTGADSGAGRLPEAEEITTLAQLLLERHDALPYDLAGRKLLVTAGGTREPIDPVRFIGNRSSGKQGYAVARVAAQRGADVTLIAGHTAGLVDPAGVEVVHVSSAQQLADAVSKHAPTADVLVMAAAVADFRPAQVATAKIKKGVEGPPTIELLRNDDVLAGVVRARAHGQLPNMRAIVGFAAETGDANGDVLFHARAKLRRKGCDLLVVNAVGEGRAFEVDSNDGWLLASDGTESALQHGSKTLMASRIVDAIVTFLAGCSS
UniProt I6X8D2, whole entry: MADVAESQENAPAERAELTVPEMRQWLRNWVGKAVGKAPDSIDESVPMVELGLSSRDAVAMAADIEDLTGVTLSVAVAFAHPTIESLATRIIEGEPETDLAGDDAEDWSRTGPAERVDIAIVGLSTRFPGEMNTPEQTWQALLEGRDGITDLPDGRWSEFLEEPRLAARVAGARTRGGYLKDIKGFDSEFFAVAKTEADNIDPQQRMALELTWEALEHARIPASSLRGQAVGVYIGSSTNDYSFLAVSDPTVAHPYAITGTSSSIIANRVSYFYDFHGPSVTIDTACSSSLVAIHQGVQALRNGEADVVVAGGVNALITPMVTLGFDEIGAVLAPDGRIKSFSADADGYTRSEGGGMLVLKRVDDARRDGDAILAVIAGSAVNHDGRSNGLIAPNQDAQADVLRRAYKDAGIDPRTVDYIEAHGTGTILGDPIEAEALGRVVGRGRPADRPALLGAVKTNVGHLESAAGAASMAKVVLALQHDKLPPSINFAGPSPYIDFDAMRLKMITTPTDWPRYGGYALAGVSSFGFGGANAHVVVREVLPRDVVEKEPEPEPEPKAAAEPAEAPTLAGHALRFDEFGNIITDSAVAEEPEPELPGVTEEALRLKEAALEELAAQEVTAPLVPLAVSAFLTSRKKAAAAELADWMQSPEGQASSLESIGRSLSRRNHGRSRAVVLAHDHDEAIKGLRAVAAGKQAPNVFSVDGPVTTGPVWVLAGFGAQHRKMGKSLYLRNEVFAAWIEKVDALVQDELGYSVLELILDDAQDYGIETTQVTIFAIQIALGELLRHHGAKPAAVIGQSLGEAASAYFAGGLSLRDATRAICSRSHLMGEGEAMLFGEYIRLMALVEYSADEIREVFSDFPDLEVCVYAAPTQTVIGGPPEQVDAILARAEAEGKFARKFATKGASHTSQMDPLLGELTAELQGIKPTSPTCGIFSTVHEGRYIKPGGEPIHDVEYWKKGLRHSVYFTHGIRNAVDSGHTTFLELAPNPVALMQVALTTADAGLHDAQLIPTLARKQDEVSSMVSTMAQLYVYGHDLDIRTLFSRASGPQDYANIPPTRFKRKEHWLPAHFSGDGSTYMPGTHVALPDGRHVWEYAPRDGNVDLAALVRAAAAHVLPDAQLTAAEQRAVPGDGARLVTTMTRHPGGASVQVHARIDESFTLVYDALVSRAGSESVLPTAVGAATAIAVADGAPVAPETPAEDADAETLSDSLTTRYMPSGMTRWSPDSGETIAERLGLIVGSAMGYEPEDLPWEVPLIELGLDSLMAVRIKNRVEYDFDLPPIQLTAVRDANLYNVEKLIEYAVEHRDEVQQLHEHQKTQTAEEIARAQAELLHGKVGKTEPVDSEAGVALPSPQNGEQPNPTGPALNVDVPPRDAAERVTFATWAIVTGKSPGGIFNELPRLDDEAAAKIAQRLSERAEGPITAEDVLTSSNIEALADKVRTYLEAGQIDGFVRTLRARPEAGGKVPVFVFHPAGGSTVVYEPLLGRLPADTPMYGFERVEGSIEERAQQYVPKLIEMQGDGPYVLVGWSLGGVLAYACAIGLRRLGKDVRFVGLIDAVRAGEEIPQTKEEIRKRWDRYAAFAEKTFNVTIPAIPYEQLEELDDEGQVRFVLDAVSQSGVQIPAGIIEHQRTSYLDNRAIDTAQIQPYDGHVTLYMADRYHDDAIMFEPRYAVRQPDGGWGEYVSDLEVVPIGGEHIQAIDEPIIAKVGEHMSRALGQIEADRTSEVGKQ
UniProt P9WPC5, whole entry: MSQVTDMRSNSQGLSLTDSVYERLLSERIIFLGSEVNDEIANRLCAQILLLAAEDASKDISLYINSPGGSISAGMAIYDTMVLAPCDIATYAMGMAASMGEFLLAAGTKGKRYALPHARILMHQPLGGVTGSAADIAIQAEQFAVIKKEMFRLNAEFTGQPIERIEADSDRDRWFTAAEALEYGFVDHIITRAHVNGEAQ
UniProt P9WPC3, whole entry partner: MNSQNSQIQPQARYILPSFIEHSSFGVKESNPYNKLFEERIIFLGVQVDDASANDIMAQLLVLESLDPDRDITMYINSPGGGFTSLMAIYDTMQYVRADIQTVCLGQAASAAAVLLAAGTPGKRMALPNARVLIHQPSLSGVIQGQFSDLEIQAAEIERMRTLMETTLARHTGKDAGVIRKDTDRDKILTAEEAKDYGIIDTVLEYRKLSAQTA
UniProt A4I591, 1-473: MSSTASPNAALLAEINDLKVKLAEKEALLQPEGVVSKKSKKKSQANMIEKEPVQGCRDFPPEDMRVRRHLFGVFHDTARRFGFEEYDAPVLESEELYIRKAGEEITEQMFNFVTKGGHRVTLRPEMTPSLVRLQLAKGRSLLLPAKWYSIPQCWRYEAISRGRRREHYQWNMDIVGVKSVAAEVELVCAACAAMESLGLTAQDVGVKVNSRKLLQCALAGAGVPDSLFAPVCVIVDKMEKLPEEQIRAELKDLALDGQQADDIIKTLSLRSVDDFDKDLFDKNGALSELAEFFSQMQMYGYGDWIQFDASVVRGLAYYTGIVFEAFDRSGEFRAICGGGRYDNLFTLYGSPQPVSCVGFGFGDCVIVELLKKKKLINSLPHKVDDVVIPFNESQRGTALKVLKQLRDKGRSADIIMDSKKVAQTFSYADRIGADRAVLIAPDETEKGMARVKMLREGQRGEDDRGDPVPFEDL
UniProt P9WFT3, whole entry: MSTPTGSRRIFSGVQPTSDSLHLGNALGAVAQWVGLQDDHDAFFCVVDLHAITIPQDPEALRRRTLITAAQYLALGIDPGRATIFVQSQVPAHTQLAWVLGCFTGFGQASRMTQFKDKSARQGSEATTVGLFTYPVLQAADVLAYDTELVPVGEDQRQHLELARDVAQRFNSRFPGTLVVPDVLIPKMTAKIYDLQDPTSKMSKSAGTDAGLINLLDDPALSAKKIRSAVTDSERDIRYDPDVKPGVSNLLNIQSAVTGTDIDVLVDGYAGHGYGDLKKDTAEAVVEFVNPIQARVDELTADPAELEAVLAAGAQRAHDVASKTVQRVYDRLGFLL

A: 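Enzyme assay of CoaBC with a phosphate dye (Biomol Green) read at 650 nm. Target: Coenzyme A biosynthesis protein CoaBC, Mycobacterium tuberculosis (UniProt P9WNZ1). Compounds at 30 µM. Direction is inferred from only a few compounds that gave an IC50; most scored high, so higher reads as stronger inhibition. Most strong results did not repeat in a second test. Size under these conditions: about 67,000 compounds, about 40 of them at 50% or above in at least one test.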
B: 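Enzyme assay of the thioesterase domain of polyketide synthase 13; the read-out is not stated. Target: Polyketide synthase Pks13, Mycobacterium tuberculosis (UniProt I6X8D2). Tested at 30 µM. The record gives no direction; the compounds picked for IC50 retests had high values, so higher reads as stronger inhibition. About 67,000 compounds were tested under these conditions; 0.46% (about 300) showed 50% or more at least once.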
C: 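Protease assay of ClpP1P2, read by the AMC dye that it sets free. Target: ClpP1P2, Mycobacterium tuberculosis (UniProt P9WPC5 and UniProt P9WPC3). Compounds at 50 µM. Higher reads as stronger inhibition, judged from the few compounds that gave an IC50. Most other retested compounds had strongly negative values. Size under these conditions: about 69,000 compounds, about 10 of them at 50% or above in at least one test.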
D: 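Assay of Toxoplasma gondii numbers, read through their beta-galactosidase reporter with a colour substrate. Tested at 10 µM. The record gives no direction; the compounds picked for IC50 retests had high values, so higher reads as fewer parasites. Of about 67,000 compounds tested this way, about 260 (0.38%) reached 50% or more in at least one test.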
E: 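Histidine-tRNA ligase, Leishmania infantum (UniProt A4I591). Enzyme assay of histidyl-tRNA synthetase; the read-out is not stated. Concentration: 30 µM. Higher reads as stronger inhibition (inferred: compounds with an IC50 in retests scored well above the rest). The assay is labelled LdHisRS but filed under L. infantum. About 69,000 compounds were tested under these conditions; 0.6% (about 410) showed 50% or more at least once.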
F: 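Enzyme assay of tryptophanyl-tRNA synthetase; the read-out is not stated. Target: Tryptophan-tRNA ligase, Mycobacterium tuberculosis (UniProt P9WFT3). Concentration: 10 µM. Direction is not recorded; retested compounds ran higher, which suggests that high means inhibition. Of about 65,000 compounds tested this way, about 64 (0.098%) reached 50% or more in at least one test.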

Values are the deposited “Percent Effect”, in %. The record does not define 0% and 100%; most values in the screen are far below 50% and negative numbers occur (in some assays of this library far below -100). The compounds are a random part of those screened. A dash means the value is not listed here; it may have been measured.

SMILES	A	B	C	D	E	F
CCOCC1CN(Cc2nccs2)Cc2nn(CC3CC3)cc21 (stereo unspecified)	7.519	-0.4619	-4.26	-	23.08	3.873
Cc1nc2cc(-c3nccn3C)nn2c(N2CCC(O)CC2)c1C	-11.14	9.367	-8.719	-	0	-4.634
CCCc1cnc(C)nc1NCCc1nc(C)cc(=O)[nH]1	-6.291	-26.12	5.24	1.752	18.75	5.811
O=C(Cc1cccs1)N1CCCC(CNS(=O)(=O)Cc2ccccc2)C1 (stereo unspecified)	-1.873	-5.716	0.4487	-11.27	3.306	2.815
Cc1ccc(F)c(OC2(C(=O)O)CCN(C(=O)c3ccccc3)CC2)c1	3.03	-13.54	-12.23	23.11	4.839	-2.963
COC(=O)N1CC2(CCNCC2)c2cc(Cl)ccc21.Cl	-	-	-	-4.626	-	-
O=C(Nc1cnn(CCN2CCOCC2)c1)c1cc(F)ccc1F	1.596	-4.005	5.39	-19.62	13.6	0.1572
Cc1cc(C(=O)N2CCCC(C(=O)c3nccn3C)C2)c(=O)[nH]c1C (stereo unspecified)	4.459	1.088	12.19	2.588	-0.885	-4.271
COc1ccc(CN(C)C(=O)Cc2c(C)nn(C)c2C)cc1F	-1.722	-18.41	-4.343	8.475	12.39	3.154
CC(C)NC(=O)N1CCC2(CCC(=O)N2CCN2CCCC2)CC1	2.96	-9.08	0.04096	-	3.846	-4.506
Cc1nn(C)c(N2CCOCC2)c1CNC(C(N)=O)c1ccccc1 (stereo unspecified)	-0.1148	-37.01	-6.716	14.12	15.93	2.007
Cc1ccc(N2C[C@@H](CN3CCOCC3)[C@@H](CO)C2)nn1	1.01	-0.446	3.802	-6.306	6.452	2.083
CC(C)N1CCC(Cn2cc(C(N)=O)cn2)CC1	0.5256	-8.084	-10.11	-0.03639	10.14	22.94
CCOCC1CN(Cc2cccs2)Cc2nn(C)cc21.O=C(O)C(F)(F)F (stereo unspecified)	-	-	-	8.264	-	-
CNC(=O)[C@@H]1CCO[C@@H]2CCN(CCc3ccccc3)C[C@H]21	0.9223	-10.52	7.081	-	20.55	4.58
Cn1cc(N2CC3(CCN(CC4CC4)C3)CC2=O)cn1 (stereo unspecified)	4.516	-19.52	-1.966	-	11.11	-2.881
Cn1ncnc1NS(=O)(=O)c1ccc(F)cc1	11.45	-28.74	-0.5139	3.996	14.29	3.526
CCc1cc(C(=O)N2CCC(c3cc4ncccc4cn3)CC2)no1	-2.19	-21.64	4.943	7.295	7.368	5.623
Cc1c(NC(=O)N(C)CCO)cccc1OC1CCCC1	-1.146	-8.982	3.659	3.328	6.218	-1.738
COc1ncccc1C(=O)NC1CCOc2ccccc21 (stereo unspecified)	3.193	6.61	-33.18	5.034	4.464	-7.85
O=C(O)C(F)(F)F.O=C(O)C(F)(F)F.O=C(O)C(F)(F)F.O=C(c1ccncc1)N1CCN(Cc2cccnc2)c2ncccc2C1	-	-	-	4.032	-	-
CN(C)C(C(=O)NCCS(=O)(=O)N(C)C)c1cccc(F)c1 (stereo unspecified)	-1.568	-6.544	-2.889	-3.893	7.2	-3.116
O=c1c(Cc2ccccc2)c(O)ccn1Cc1ccco1	-3.222	-3.798	3.264	2.713	14.58	17.58
O=C(O)c1cnc2c(cnn2C2CCCC2)c1	6.303	-37.06	5.12	5.915	14.53	-6.175
Cl.Cl.c1cnc(NCc2cncc3c2CCN(Cc2ccsc2)C3)nc1	-	-	-	7.344	-	-
O=C(O)C(F)(F)F.O=C(O)C(F)(F)F.O=C(O)C(F)(F)F.[H][C@]12C[C@@H](CN3CCCC3)N(C(C)C)[C@@]1([H])CCN(Cc1ccoc1)C2	-	-	-	1.117	-	-
CCc1nc(C)c(C(=O)NCCN2CCC(C)CC2)s1	0.7905	-0.5722	-4.054	-2.447	3.125	-1.247
COc1ccc(C(C)=O)c(OCC(=O)NC(C)c2ccc(F)cc2)c1 (stereo unspecified)	10.13	-29.89	9.914	1.542	13.21	-4.359
CCO[C@H]1CO[C@@]2(CCCN(Cc3nc(C)cs3)C2)C1	7.957	-21.4	-6.669	-	17.14	-0.9046
CNC(=O)CCc1cc(C)nc(C2CCN(C3CCCCC3)CC2)c1	7.416	-0.3155	-20.22	-11.22	15.83	-5.208
Cc1ccc(NC(=O)NC(C)(C)c2noc(C)n2)cc1	4.487	20.86	-7.6	-3.034	26.03	6.79
Cc1nnc2n1CCN(C(=O)CN1C(=O)C(C)Oc3ccccc31)C2 (stereo unspecified)	5.353	-34.03	0.7115	13.97	13.79	-0.374
Cc1nc(C)n(CC2CCCN2Cc2nc3ccccc3n2C)n1 (stereo unspecified)	5.085	-18.2	0.1005	10.71	17.57	0.4223
COC(C)(C)C(=O)N[C@H]1CN(c2ncccc2C(N)=O)C[C@@H]1C(C)C	3.548	-0.9539	-13.69	6.183	-3.947	-2.651
Cc1ccc(N2CC[C@H]3OCC[C@@]3(C(=O)N3CCCC3)C2)nn1	4.611	-4.518	-5.211	-	10.96	1.018
COc1ccccc1C(=O)N(C)Cc1ncc(C)c(OC)c1C	9.231	-8.655	6.911	-106	-21.33	1.642
NC(=O)C(NC(=O)COC1CCCC1)c1ccccc1 (stereo unspecified)	5.16	-0.3126	0.1498	12.97	16.67	-1.12
O=C(C1CCCCC1)N1CCCC2(CCN(c3cnccn3)CC2)C1	4.071	-21.85	-11.32	-	33.01	-1.213

For reference, 2 entries once more:

SMILES	A	B	C	D	E	F
CCOCC1CN(Cc2nccs2)Cc2nn(CC3CC3)cc21 (stereo unspecified)	7.519	-0.4619	-4.26	-	23.08	3.873
Cc1nn(C)c(N2CCOCC2)c1CNC(C(N)=O)c1ccccc1 (stereo unspecified)	-0.1148	-37.01	-6.716	14.12	15.93	2.007

The values are deposited in ChEMBL (CHEMBL3988442, “University of Dundee, Small-Polar-MMV Screening Library” (2021)).